Laboratory results: PubChem BioAssay AID743454 (Peter MacCallum Cancer Centre, 2014)

Aim: 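Genes whose loss kills vorinostat-resistant colon cancer cells under vorinostat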 (primary screen)
System: human HCT116-VR colon cancer cells, selected for vorinostat resistance
Reagent: siRNA pool against human genes, 40 nM siRNA pool
Timing: vorinostat for 24 h, read-out about 72 h after transfection
Conditions: vorinostat at 2.5 µM final
Read-out: 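Cell viability by CellTiter-Fluor and caspase 3/7 activity by luminescence, each scaled to mock wells per plate, duplicates averaged, then robust z-scored over all plates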
Scale: viability robust z-score: higher = more viable cells than screen typical; caspase robust z-score: higher = more caspase 3/7 activity than screen typical
Hit rule: 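Hits are knock-downs in viability class RV1/RV2 or caspase class CA1/CA2, excluding ones that killed cells in the no-drug cell-count arm; hits then retested with single siRNAs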
Here is one part, drawn at random, of about 18,000 deposited reagents. 450 of them (2.5%) count as active. 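Single biological run; no consistent viability z cut-off exists, so the class columns, not z-scores, define the calls.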 Unmarked entries are inactive.

no.	Gene	viability hit class	caspase hit class	viability robust z-score	caspase robust z-score
1	RASAL3	no change	no change	1.01	-1.09
2	ZNF75D	no change	no change	0.22	-0.6
3	KRTAP5-7	no change	no change	-1.44	2.19
4	TEC	no change	no change	1.02	-0.88
5	NUP50	no change	no change	0.4	1.57
6	TBC1D23	no change	no change	0.15	0.74
7	PPME1	no change	no change	-0.06	3.71

Entries listed so far whose target name begins with T or t:
Gene	viability hit class	caspase hit class	viability robust z-score	caspase robust z-score
TEC	no change	no change	1.02	-0.88
TBC1D23	no change	no change	0.15	0.74

Further entries follow:
no.	Gene	viability hit class	caspase hit class	viability robust z-score	caspase robust z-score
8	MAD2L2	no change	no change	-0.92	0.2
9	PRDX5	no change	no change	1.44	-0.72
10	TENT4B	no change	no change	0.76	-0.03
11	CRYBB1	no change	no change	-0.83	0.7
12	IL17RC	no change	no change	1.12	2.15
13	UBQLNL	no change	no change	1.04	0.48
14	LSM11	no change	no change	0.08	-0.14
15	RCVRN	no change	no change	-1.75	2.91
16	ACVRL1	no change	no change	0.08	-0.58
17	DNAH8	no change	no change	0.37	-0.27
18	TRIM64B	no change	no change	-0.6	3.3
19	RAI2	no change	no change	-0.6	0.16
20	ANKRD50	no change	no change	-0.7	5
21	KNSTRN	no change	no change	-0.54	-0.05
22	RPAP3	no change	no change	-0.82	-0.33
23	CYP11B1	no change	no change	-0.06	0.4
